The exact form of at least one protein or probe is not confirmed. Weaker means in comparison with the reference protein, sequence or condition of that experiment.

This is an account of results in article PMC5364489.

The target of the data set is Mt56 T7 RNA polymerase (A102D) (UniProt P00573). Put plainly: EMSA. Particulars: 2.5 uM dsDNA, weaker than wild type, half-saturation compared only in figure, not a true Kd; 50 mM Tris acetate, 10 mM magnesium acetate, 50 mM sodium acetate (pH not stated), 25 °C, 30 min; 1.5% TAE agarose gel; recombinant protein; label: 5' ATTO488 on strand 1.

In the case of “GCCAGTAATACGACTCACTATAGGG (double strand) [T7 promoter dsDNA]”, the binding result was “binds more weakly”.
